PubChem BioAssay AID504764 – Drosophila RNAi Screening Center | 2011
Aim: 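Knock-downs that raise or lower a Notch target reporter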 (primary screen). System: Drosophila Kc167 cells. Knock-down reagent: long dsRNA against Drosophila genes. Time to read-out: about 5 days (4 days dsRNA, then 24 h after transfection). Treatment: transfection of constitutively active membrane-tethered Notch lacking the extracellular domain, read 24 h later. Measured: 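Firefly luciferase from an E(spl)m3 reporter with active Notch, plus control-promoter and uninduced reporter wells for normalisation; unnormalised counts, duplicate wells a and b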. Scale: induced reporter light, run 1, well a and induced reporter light, run 1, well b: higher = more light from the Notch target reporter with active Notch; control promoter light, run 1, well a and control promoter light, run 1, well b: higher = more light from the viral control promoter (cell number, transfection, viability); uninduced reporter light, run 1, well a: higher = more light from the Notch target reporter without active Notch. Call rule: 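Wells with low control signal or poorly matching duplicates excluded; duplicates averaged; per source plate, z beyond ±2 for induced/control log2 ratio or beyond ±1.8 for induced/uninduced marks a hit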. Meaning of the calls: active = modifier hit (raised or lowered Notch signal); inactive = not a hit.
The screen tested about 22,000 reagents; this is a random part of those that have a named target and a result. Of all reagents, 403 (1.9%) were called active. 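Unnormalised raw counts per well; ratio z-scores behind the hit calls and whether each hit raises or lowers signal are not deposited.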 Entries without a mark were called inactive. Names joined by + are all predicted targets of the reagent. Not given: the amount of reagent.

target gene	amplicon	induced reporter light, run 1, well a	induced reporter light, run 1, well b	control promoter light, run 1, well a	control promoter light, run 1, well b	uninduced reporter light, run 1, well a
Bre1 (GeneID 38652)	DRSC09742	1.13e5	1.14e5	88965	82715	11665
net (GeneID 45339)	DRSC00309	2.06e5	1.66e5	1.31e5	99345	12990
Snx27 (GeneID 31493)	DRSC17786	1.49e5	1.45e5	2.54e5	2.37e5	10890
Snx27 (GeneID 31493)	DRSC18282	1.26e5	1.35e5	2.45e5	2.56e5	10285
Snx27 (GeneID 31493)	DRSC18284	1.27e5	1.27e5	2.53e5	2.97e5	9825
Idi (GeneID 42526)	DRSC15918	1.90e5	1.65e5	2.22e5	2.17e5	16480
Trp1 (GeneID 34333)	DRSC03465	80550	1.22e5	66400	79850	14670
grsm (GeneID 41587)	DRSC14165	3.11e5	2.79e5	2.59e5	2.66e5	21350
grsm (GeneID 41587)	DRSC14843	3.30e5	3.34e5	2.61e5	3.08e5	23395
Su(fu) (GeneID 41565)	DRSC16871	1.83e5	1.40e5	93400	78195	11245
Glys (GeneID 41823)	DRSC16130	1.32e5	1.53e5	1.04e5	1.02e5	9942
IntS6 (GeneID 31496)	DRSC18281	1.52e5 (active)	1.42e5	1.08e5	99905	21910
CG17738 (GeneID 41490)	DRSC15257	45630	62350	54220	37525	4110
CG1309 (GeneID 38519)	DRSC08302	1.43e5	1.33e5	93065	47585	9225
Gyc88E (GeneID 41825)	DRSC15547	1.74e5	1.86e5	1.69e5	1.83e5	18250
Dhod (GeneID 41022)	DRSC16647	84620	80695	62525	46090	7195
BomT2 (GeneID 50208)	DRSC06631	1.01e5	1.00e5	1.21e5	89705	7110
brwl (GeneID 34275)	DRSC01080	6915	5165	6200	5628	4210
brwl (GeneID 34275)	DRSC02729	2.22e5	1.92e5	1.77e5	1.81e5	17040
IFT43 (GeneID 34676)	DRSC02892	2.11e5	2.02e5	1.99e5	1.70e5	17890
Ac78C (GeneID 40333)	DRSC11467	2.15e5	2.39e5	2.68e5	2.78e5	19565
Ac78C (GeneID 40333)	DRSC11602	1.54e5	1.24e5	1.14e5	97315	13640
Ac78C (GeneID 40333)	DRSC11619	5270	5515	6240	4405	460
RpS30 (GeneID 42470)	DRSC15119	10620	13832	14170	14735	1095
moi + Tgs1	DRSC16371	1.48e5	1.31e5	1.82e5	2.04e5	11290
Su(var)3-7 (GeneID 41627)	DRSC16872	1.68e5	1.91e5	1.48e5	1.83e5	13275
CG7220 (GeneID 36129)	DRSC05235	1.99e5	2.24e5	3.10e5	3.35e5	22390
CG7220 (GeneID 36129)	DRSC07018	1.94e5	1.66e5	1.85e5	2.01e5	16350
spab (GeneID 35901)	DRSC07112	1.88e5	1.93e5	2.44e5	2.03e5	16335
gce (GeneID 32457)	DRSC19613	48740	54360	77525	73000	8185
gce (GeneID 32457)	DRSC19974	59865	53705	93300	62615	11440
CG15818 (GeneID 34019)	DRSC02505	1.80e5	1.98e5	1.73e5	1.84e5	14450
Uros2 (GeneID 41908)	DRSC16505	2.39e5	2.45e5	2.59e5	2.50e5	20475
px (GeneID 37573)	DRSC04708	45335	48095	35285	37315	8770
Usp10 (GeneID 38103)	DRSC08282	1.01e5	94485	1.64e5	1.73e5	7810
Usp10 (GeneID 38103)	DRSC08373	80610 (active)	97155	2.96e5	2.36e5	8385
Megf8 (GeneID 34099)	DRSC03058	1.89e5	2.19e5	2.15e5	1.68e5	17038
CG13949 (GeneID 33266)	DRSC00367	1.56e5	1.34e5	1.26e5	60575	12700
CG13501 (GeneID 37510)	DRSC04146	46850	38815	34640	39350	1565

Part of the list above, showing only “uninduced reporter light, run 1, well a”.
Trp1 (GeneID 34333) [DRSC03465]	14670
grsm (GeneID 41587) [DRSC14165]	21350
grsm (GeneID 41587) [DRSC14843]	23395
Su(fu) (GeneID 41565) [DRSC16871]	11245
Glys (GeneID 41823) [DRSC16130]	9942
IntS6 (GeneID 31496) [DRSC18281]	21910 (active)
CG17738 (GeneID 41490) [DRSC15257]	4110
CG1309 (GeneID 38519) [DRSC08302]	9225
Gyc88E (GeneID 41825) [DRSC15547]	18250

Further results:
target gene	amplicon	induced reporter light, run 1, well a	induced reporter light, run 1, well b	control promoter light, run 1, well a	control promoter light, run 1, well b	uninduced reporter light, run 1, well a
Pitslre (GeneID 40292)	DRSC11874	99780	1.29e5	73515	60400	5535
Naxd (GeneID 40085)	DRSC09722	1.20e5	1.36e5	71845	80435	8385
CG7248 (GeneID 39356)	DRSC10788	1.01e5	80175	1.06e5	1.01e5	4120
CG9519 (GeneID 32415)	DRSC20195	2.24e5	2.19e5	2.62e5	2.63e5	12450
Klp68D (GeneID 39332)	DRSC11206	1.46e5	1.35e5	86840	49160	10985
Mabi (GeneID 34727)	DRSC02489	2.13e5	2.17e5	1.60e5	1.81e5	16765
Cys (GeneID 41767)	DRSC16637	2.24e5	1.85e5	2.00e5	1.89e5	14350
Der-2 (GeneID 42005)	DRSC15021	2.34e5	2.01e5	1.98e5	2.10e5	19890
Prx3 (GeneID 42109)	DRSC15883	1.19e5	1.51e5	1.37e5	1.65e5	14730
CG15366 (retired record) (GeneID 31832)	DRSC18039	1.27e5	1.45e5	2.56e5	2.66e5	10390
sas (GeneID 40861)	DRSC12631	1.04e5	1.12e5	1.16e5	95040	10478
jub (GeneID 32351)	DRSC19367	1.10e5 (active)	81040	52620	54745	7565
nes (GeneID 40093)	DRSC11375	83605	83885	70000	63970	4290
CheA7a (GeneID 31672)	DRSC17965	1.65e5	1.37e5	3.02e5	2.66e5	10430
mRpS9 (GeneID 40932)	DRSC12645	1.43e5	1.51e5	1.59e5	1.45e5	9880
mRpS9 (GeneID 40932)	DRSC15456	95085	1.12e5	1.09e5	83770	12820
CG12912 (GeneID 36075)	DRSC06227	7865	6965	9520	8680	1975
l(2)k09848 (GeneID 35536)	DRSC04894	1.36e5	1.40e5	1.27e5	1.54e5	12215
Arp10 (GeneID 32969)	DRSC19448	1.03e5	1.24e5	96590	54680	8265
CG42703 (GeneID 10178828)	DRSC03973	81180	1.02e5	89995	1.02e5	8780
Sardh (GeneID 37026)	DRSC06981	87615	96075	1.48e5	1.77e5	7455
Scp1 (GeneID 3355102)	DRSC20799	1.90e5	2.11e5	3.39e5	2.89e5	17280
Scp1 (GeneID 3355102)	DRSC20803	2.92e5	2.57e5	3.31e5	3.99e5	16955
Scp1 (GeneID 3355102)	DRSC20806	99810	90885	90605	1.25e5	12565
AstA (GeneID 42947)	DRSC14634	1.59e5	1.69e5	1.96e5	2.08e5	12935
